Test [1] addresses Notch1 intracellular domain (NICD1), endogenous (human (endogenous in LUAD cells)) (UniProt P46531). The test can be described thus: co-IP; MCM5 with endogenous NICD1 in LUAD cells; bait not stated.
Test [2] has the same target. In words: proximity ligation; DuoLink In Situ Fluorescence on fixed LUAD cells; primary antibodies to MCM5 and cleaved-Notch1.

Protein sequences, listed by entry. Tags and fused reporters are not part of them. Residues count along the entry.
UniProt P46531, residues 1754-2555: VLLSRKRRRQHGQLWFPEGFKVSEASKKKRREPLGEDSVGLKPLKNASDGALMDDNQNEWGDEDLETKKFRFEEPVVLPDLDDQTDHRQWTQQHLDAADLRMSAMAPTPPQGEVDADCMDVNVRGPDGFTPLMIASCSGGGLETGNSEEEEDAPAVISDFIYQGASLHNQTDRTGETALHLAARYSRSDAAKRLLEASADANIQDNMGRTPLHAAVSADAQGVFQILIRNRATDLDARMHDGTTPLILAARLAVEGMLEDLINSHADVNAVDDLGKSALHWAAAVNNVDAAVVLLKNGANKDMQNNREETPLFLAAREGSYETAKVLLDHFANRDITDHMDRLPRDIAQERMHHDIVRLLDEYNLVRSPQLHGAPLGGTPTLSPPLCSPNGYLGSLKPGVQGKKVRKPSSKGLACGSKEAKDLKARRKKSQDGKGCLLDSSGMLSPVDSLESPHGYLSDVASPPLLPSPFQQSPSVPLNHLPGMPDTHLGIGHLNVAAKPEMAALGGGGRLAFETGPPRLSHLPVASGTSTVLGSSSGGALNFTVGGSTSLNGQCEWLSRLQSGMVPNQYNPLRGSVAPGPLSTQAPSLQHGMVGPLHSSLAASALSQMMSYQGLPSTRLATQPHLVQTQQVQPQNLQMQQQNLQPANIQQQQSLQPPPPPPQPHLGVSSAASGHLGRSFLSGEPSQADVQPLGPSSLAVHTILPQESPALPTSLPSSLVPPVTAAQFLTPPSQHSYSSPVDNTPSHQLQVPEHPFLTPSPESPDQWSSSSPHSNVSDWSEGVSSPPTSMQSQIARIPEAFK

No constants are given. Whether binding was seen depends on the method and setting. In cells and extracts the contact can be indirect. Some entries that bind do so weakly or less than the wild type.

B1: minichromosome maintenance complex component 5 (MCM5), in cells (protein, UniProt P33992 1-734)
chain: MSGFDDPGIFYSDSFGGDAQADEGQARKSQLQRRFKEFLRQYRVGTDRTGFTFKYRDELKRHYNLGEYWIEVEMEDLASFDEDLADYLYKQPAEHLQLLEEAAKEVADEVTRPRPSGEEVLQDIQVMLKSDASPSSIRSLKSDMMSHLVKIPGIIIAASAVRAKATRISIQCRSCRNTLTNIAMRPGLEGYALPRKCNTDQAGRPKCPLDPYFIMPDKCKCVDFQTLKLQELPDAVPHGEMPRHMQLYCDRYLCDKVVPGNRVTIMGIYSIKKFGLTTSRGRDRVGVGIRSSYIRVLGIQVDTDGSGRSFAGAVSPQEEEEFRRLAALPNVYEVISKSIAPSIFGGTDMKKAIACLLFGGSRKRLPDGLTRRGDINLLMLGDPGTAKSQLLKFVEKCSPIGVYTSGKGSSAAGLTASVMRDPSSRNFIMEGGAMVLADGGVVCIDEFDKMREDDRVAIHEAMEQQTISIAKAGITTTLNSRCSVLAAANSVFGRWDETKGEDNIDFMPTILSRFDMIFIVKDEHNEERDVMLAKHVITLHVSALTQTQAVEGEIDLAKLKKFIAYCRVKCGPRLSAEAAEKLKNRYIIMRSGARQHERDSDRRSSIPITVRQLEAIVRIAEALSKMKLQPFATEADVEEALRLFQVSTLDAALSGTLSGVEGFTSQEDQEMLSRIEKQLKRRFAIGSQVSEHSIIKDFTKQKYPEHAIHKVLQLMLRRGEIQHRMQRKVLYRLK
For B1, the binding result in test [1] and in test [2] was “binds” in each case.

(Values after publication PMC10369244.)
